Experimental data: the supplement of paper PMC10849652
This is one part of the list.

Amino acid sequences for entries named in this document (tags omitted). A change or cut given only in a name is not applied to a line headed by its entry.
UniProt P48454, whole entry, looked up: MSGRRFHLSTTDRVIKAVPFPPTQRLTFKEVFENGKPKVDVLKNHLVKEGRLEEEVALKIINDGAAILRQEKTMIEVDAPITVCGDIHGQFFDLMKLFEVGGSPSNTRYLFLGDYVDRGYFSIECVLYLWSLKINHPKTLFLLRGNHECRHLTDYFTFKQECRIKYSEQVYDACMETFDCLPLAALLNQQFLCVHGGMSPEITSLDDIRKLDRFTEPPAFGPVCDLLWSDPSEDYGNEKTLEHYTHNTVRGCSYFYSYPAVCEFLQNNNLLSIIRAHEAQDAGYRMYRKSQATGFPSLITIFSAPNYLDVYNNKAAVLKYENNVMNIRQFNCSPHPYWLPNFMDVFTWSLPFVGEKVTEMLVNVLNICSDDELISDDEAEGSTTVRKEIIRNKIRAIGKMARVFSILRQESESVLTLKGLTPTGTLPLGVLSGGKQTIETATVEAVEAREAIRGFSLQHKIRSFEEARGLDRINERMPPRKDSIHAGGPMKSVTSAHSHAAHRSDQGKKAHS
UniProt Q12972: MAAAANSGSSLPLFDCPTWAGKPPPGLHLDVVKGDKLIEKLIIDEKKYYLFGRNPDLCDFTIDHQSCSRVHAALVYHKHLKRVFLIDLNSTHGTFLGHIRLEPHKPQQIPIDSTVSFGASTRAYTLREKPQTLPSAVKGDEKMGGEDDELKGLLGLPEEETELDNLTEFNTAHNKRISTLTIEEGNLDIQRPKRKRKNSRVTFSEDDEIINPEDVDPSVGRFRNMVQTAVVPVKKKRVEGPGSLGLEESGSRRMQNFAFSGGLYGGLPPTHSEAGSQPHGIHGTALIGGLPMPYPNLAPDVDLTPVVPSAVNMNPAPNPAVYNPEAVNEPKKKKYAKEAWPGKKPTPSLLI
UniProt O75170: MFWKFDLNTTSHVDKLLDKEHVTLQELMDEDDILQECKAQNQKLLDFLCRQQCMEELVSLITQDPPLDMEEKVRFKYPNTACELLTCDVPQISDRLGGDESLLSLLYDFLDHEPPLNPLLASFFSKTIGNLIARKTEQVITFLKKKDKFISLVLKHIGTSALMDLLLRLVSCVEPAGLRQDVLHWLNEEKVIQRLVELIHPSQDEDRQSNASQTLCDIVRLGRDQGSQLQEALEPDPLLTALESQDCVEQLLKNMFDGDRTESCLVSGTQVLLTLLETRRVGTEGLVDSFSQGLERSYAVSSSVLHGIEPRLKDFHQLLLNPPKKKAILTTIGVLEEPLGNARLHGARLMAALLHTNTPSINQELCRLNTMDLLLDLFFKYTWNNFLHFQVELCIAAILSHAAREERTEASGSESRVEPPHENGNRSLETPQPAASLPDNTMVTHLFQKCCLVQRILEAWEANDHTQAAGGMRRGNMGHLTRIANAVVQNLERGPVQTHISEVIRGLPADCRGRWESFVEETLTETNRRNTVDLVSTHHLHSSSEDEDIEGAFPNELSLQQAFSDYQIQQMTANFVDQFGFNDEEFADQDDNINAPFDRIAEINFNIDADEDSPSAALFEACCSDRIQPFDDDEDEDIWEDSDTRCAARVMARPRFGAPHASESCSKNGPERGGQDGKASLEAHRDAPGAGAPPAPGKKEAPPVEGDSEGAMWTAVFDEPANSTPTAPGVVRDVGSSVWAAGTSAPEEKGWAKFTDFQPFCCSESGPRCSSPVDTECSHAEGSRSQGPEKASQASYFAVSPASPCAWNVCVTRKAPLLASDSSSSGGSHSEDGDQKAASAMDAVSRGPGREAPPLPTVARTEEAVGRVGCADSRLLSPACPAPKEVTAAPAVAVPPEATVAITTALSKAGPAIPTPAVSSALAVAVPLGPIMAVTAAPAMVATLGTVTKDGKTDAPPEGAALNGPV
UniProt P60891: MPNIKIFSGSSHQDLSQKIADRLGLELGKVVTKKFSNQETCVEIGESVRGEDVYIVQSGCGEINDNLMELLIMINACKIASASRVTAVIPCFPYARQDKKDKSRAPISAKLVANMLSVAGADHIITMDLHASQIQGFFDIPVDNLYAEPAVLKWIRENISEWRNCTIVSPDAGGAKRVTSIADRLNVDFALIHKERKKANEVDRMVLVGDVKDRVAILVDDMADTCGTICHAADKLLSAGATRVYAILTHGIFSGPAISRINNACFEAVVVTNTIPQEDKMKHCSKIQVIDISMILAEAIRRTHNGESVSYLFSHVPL
UniProt P62714, whole entry, looked up: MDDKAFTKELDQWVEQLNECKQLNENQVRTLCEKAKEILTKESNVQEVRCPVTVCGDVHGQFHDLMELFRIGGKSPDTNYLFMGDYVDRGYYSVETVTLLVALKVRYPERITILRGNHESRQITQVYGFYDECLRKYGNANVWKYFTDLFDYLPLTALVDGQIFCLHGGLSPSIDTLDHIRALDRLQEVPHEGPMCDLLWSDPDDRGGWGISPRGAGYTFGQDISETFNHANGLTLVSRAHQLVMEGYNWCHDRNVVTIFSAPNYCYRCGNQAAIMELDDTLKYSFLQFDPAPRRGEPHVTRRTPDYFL
UniProt P07225: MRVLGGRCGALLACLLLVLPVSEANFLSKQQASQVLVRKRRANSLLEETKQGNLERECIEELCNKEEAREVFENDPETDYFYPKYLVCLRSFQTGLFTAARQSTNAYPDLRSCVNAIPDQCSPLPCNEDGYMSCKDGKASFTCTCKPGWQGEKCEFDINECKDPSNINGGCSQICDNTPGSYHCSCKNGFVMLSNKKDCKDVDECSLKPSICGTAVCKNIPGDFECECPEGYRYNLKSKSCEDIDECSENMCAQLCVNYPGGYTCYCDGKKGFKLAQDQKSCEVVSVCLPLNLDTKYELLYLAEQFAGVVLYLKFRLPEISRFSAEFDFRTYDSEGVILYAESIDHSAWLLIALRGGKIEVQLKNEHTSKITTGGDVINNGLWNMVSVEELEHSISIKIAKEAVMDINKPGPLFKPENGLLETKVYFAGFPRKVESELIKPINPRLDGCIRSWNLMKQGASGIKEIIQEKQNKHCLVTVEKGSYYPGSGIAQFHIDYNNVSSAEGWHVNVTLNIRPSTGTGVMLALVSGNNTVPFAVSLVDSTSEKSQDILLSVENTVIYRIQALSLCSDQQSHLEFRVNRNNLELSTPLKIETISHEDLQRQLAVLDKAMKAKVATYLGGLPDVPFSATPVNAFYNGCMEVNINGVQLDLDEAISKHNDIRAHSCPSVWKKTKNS
UniProt P30048: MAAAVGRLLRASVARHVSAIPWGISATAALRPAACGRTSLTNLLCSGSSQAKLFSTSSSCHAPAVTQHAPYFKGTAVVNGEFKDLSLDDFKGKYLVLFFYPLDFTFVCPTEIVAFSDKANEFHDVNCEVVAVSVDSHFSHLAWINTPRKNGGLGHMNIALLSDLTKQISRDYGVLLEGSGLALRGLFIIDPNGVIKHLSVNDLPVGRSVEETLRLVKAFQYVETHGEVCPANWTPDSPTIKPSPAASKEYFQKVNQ
UniProt Q9UGJ0: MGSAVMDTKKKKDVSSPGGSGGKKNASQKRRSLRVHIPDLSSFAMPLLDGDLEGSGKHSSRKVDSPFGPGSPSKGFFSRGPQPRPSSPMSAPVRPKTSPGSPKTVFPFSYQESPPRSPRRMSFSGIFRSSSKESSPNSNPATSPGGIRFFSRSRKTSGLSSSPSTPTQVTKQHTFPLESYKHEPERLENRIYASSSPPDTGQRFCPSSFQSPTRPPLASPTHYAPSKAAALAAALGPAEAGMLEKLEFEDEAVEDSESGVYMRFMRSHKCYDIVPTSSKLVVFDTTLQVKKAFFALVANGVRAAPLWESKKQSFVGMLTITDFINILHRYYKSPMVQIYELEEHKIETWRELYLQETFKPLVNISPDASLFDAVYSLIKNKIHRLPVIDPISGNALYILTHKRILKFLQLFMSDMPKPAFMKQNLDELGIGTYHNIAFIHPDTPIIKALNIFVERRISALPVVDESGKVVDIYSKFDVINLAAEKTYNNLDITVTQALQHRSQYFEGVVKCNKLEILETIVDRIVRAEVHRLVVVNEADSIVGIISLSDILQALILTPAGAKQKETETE
UniProt Q96M27: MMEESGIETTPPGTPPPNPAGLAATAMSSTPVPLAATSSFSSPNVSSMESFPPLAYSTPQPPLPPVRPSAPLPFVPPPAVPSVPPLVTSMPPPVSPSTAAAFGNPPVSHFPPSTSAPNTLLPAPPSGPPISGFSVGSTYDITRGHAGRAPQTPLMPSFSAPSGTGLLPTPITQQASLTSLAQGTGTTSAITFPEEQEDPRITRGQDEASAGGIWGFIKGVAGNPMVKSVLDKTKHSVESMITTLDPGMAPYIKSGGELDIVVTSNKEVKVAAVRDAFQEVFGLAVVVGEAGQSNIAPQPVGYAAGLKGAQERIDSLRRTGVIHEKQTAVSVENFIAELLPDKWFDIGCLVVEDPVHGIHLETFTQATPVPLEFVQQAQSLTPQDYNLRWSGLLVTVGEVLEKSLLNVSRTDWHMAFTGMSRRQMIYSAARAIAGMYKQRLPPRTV
UniProt Q96SB3: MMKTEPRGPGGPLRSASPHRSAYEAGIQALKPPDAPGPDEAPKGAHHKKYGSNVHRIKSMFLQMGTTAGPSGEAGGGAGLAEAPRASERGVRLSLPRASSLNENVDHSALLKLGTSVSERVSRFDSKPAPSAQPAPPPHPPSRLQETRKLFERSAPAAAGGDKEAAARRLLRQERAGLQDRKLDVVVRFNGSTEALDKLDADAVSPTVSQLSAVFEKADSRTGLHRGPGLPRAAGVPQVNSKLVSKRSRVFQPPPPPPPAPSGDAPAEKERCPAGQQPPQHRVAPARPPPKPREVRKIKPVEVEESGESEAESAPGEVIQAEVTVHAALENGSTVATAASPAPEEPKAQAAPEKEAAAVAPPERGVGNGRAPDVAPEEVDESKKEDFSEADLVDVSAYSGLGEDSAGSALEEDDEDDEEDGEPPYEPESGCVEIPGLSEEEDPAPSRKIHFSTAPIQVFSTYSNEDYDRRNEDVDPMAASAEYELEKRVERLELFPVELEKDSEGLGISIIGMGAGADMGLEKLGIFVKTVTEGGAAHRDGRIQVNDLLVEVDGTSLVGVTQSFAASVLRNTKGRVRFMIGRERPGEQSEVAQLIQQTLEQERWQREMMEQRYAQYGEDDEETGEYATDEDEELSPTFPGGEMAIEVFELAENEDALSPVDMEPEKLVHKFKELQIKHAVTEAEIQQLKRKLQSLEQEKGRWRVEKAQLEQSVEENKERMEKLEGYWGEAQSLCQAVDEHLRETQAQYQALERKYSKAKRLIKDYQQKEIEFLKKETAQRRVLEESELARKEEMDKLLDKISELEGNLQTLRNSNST
UniProt Q99633: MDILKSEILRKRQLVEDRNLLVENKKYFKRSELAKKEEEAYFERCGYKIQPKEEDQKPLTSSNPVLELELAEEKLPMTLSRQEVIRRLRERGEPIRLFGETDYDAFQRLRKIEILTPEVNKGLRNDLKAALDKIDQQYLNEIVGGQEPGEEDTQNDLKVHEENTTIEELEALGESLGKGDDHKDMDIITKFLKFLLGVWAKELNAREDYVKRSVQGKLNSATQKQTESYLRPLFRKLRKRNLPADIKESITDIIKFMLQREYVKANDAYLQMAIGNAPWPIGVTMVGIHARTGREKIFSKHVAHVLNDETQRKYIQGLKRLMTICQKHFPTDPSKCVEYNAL
UniProt P41219, whole entry, looked up: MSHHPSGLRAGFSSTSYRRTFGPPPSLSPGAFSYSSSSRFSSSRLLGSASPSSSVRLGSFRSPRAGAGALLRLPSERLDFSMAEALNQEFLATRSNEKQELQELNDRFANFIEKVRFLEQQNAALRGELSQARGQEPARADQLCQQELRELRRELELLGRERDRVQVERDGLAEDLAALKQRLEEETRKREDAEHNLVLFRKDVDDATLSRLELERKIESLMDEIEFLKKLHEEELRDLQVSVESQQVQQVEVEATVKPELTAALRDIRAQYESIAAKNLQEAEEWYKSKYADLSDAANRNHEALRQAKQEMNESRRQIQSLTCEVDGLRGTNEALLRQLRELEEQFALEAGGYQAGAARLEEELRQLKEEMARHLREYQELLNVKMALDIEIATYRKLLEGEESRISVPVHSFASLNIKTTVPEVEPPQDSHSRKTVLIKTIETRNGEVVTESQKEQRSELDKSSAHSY
UniProt P14314: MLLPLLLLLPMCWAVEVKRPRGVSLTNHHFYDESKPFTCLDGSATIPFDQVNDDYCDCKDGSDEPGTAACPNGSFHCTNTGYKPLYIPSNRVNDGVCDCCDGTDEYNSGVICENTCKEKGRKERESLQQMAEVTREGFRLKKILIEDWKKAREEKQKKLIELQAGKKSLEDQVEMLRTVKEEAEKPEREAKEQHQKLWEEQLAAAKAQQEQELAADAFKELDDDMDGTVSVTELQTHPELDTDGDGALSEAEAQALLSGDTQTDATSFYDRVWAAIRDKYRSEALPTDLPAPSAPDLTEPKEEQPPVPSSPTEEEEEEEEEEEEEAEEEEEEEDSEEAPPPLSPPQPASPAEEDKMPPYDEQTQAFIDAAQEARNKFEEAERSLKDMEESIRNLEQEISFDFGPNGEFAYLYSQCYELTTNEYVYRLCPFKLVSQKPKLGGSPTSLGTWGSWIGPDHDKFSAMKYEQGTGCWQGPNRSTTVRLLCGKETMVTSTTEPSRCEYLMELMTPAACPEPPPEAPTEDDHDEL

What was measured:
Test in all cases: log2 fold change, soluble protein after heating vs DMSO (PISA); higher = thermal stabilisation; K562 cells, 10 uM, 30 min; active = over 0.2 and 3.5 SD of the protein, either way, in both replicates (recomputed)
[1] = compound: NC(=O)Nc1cc(-c2cccc(F)c2)sc1C(=O)N[C@H]1CCCNC1
Procedure, shortened: (§1)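 K562 cells at 2×10^6 cells/mL were treated with 10 μM compound for 30 min. Aliquots were heated for 3 min across 48°C-58°C, pooled, and extracted in PBS with 0.5% NP-40 at 4°C; soluble protein was the supernatant after 21,000xg for 90 min. Soluble protein was quantified by TMTpro 16plex LC-MS/MS with channel sums equalised, and reported as log2 fold change in thermal stability against DMSO controls, with values from duplicates.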

[2] = compound: NC(=O)c1cnc(N[C@@H]2CCCC[C@@H]2N)nc1Nc1cccc(-n2nccn2)c1
Procedure, shortened: as §1

[3] = compound: NC1(c2ccc(-c3nc4ccn5c(=O)[nH]nc5c4cc3-c3ccccc3)cc2)CCC1
Procedure, shortened: as §1

[4] = compound: NCC(=O)Nc1ccc(-n2nc(C(F)(F)F)cc2-c2ccc3c(ccc4ccccc43)c2)cc1
Procedure, shortened: as §1

entinostat = compound: Nc1ccccc1NC(=O)c1ccc(CNC(=O)OCc2cccnc2)cc1 [entinostat]
Procedure, shortened: as §1

vorinostat = compound: O=C(CCCCCCC(=O)Nc1ccccc1)NO [vorinostat]
Procedure, shortened: as §1

citarinostat = compound: O=C(CCCCCCNC(=O)c1cnc(N(c2ccccc2)c2ccccc2Cl)nc1)NO [citarinostat]
Procedure, shortened: as §1

silmitasertib = compound: O=C(O)c1ccc2c(c1)nc(Nc1cccc(Cl)c1)c1ccncc12 [silmitasertib]
Procedure, shortened: as §1

[5] = compound: O=C1NC(=O)C(c2cnc3ccccn23)=C1c1cn2c3c(cc(F)cc13)CN(C(=O)N1CCCCC1)CC2
Procedure, shortened: as §1

[6] = compound: c1cc(OCCN2CCCCC2)cc(-c2n[nH]c3ccc(-c4nnc[nH]4)cc23)c1
Procedure, shortened: as §1

entospletinib = compound: c1cn2cc(-c3ccc4cn[nH]c4c3)nc(Nc3ccc(N4CCOCC4)cc3)c2n1 [entospletinib]
Procedure, shortened: as §1

Measured: log2 fold change

PPP3CC isoform 3 (UniProt P48454)
inactive: [1] -0.036 | [2] 0.01 | [3] -0.067 | [4] -0.043 | entinostat -0.007 | vorinostat -0.032 | citarinostat 0.056 | silmitasertib -0.015 | [5] -0.084 | [6] -0.026 | entospletinib -0.006

PRPS2 isoform 2 (UniProt P11908)
inactive: [1] -0.009 | [2] 0.049 | [3] -0.034 | [4] 0 | entinostat -0.03 | vorinostat -0.026 | citarinostat -0.002 | silmitasertib -0.022 | [5] -0.054 | [6] -0.017 | entospletinib -0.023

PPP1R8 (UniProt Q12972)
inactive: [1] 0.028 | [2] -0.022 | [3] -0.036 | [4] -0.035 | entinostat 0.02 | vorinostat 0.03 | citarinostat 0.058 | silmitasertib 0.002 | [5] 0.012 | [6] 0.014 | entospletinib -0.033

PPP6R2 isoform 5 (UniProt O75170)
inactive: [1] 0.047 | [2] 0.048 | [3] -0.053 | [4] 0.082 | entinostat -0.017 | vorinostat 0.028 | citarinostat 0.077 | silmitasertib -0.002 | [5] -0.019 | [6] -0.022 | entospletinib -0.022

PRKAR2A (UniProt P13861)
active: [1] -0.502
inactive: [2] -0.071 | [3] -0.002 | [4] -0.039 | entinostat 0.025 | vorinostat -0.012 | citarinostat 0.002 | silmitasertib 0.051 | [5] 0.002 | [6] -0.028

PRPS1 (UniProt P60891)
inactive: [1] 0.035 | [2] 0.024 | [3] -0.014 | [4] 0.009 | entinostat 0.004 | vorinostat -0.023 | citarinostat -0.001 | silmitasertib -0.005 | [5] -0.008 | [6] -0.015 | entospletinib -0.051

PPWD1 (UniProt Q96BP3)
inactive: [1] -0.062 | [2] -0.074 | [3] -0.112 | [4] -0.047 | entinostat 0.035 | vorinostat 0.009 | citarinostat 0.005 | silmitasertib 0.021 | [5] -0.055 | [6] 0.003 | entospletinib -0.008

PPP2CB (UniProt P62714)
inactive: [1] -0.033 | [2] 0.027 | [3] 0.042 | [4] 0.011 | entinostat -0.024 | vorinostat -0.047 | citarinostat 0.036 | silmitasertib 0.023 | [5] -0.005 | [6] -0.01 | entospletinib 0.02

PPP4C (UniProt P60510)
inactive: [1] -0.001 | [2] 0.003 | [3] 0.015 | [4] 0.01 | entinostat -0.015 | vorinostat 0.003 | citarinostat 0.064 | silmitasertib -0.031 | [5] -0.043 | [6] -0.136 | entospletinib 0.022

PRRC2A (UniProt P48634)
inactive: [1] 0.02 | [2] 0.054 | [3] 0.182 | [4] 0.066 | entinostat -0.074 | vorinostat -0.015 | citarinostat -0.081 | silmitasertib 0.085 | [5] 0.104 | [6] -0.131 | entospletinib 0.076

PPP2R2D (UniProt Q66LE6)
inactive: [1] -0.063 | [2] -0.071 | [3] -0.117 | [4] -0.068 | entinostat -0.026 | vorinostat 0.001 | citarinostat -0.038 | silmitasertib -0.053 | [5] -0.355 | [6] -0.047 | entospletinib 0.097

PROS1 (UniProt P07225)
inactive: [1] -0.138 | [2] -0.113 | [3] 0.028 | [4] 0.004 | entinostat -0.014 | vorinostat -0.014 | citarinostat -0.019 | silmitasertib 0.139 | [5] -0.079 | [6] 0.025 | entospletinib 0.047

PREB (UniProt Q9HCU5)
inactive: [1] -0.017 | [2] -0.002 | [3] -0.011 | [4] -0.03 | entinostat 0.012 | vorinostat -0.034 | citarinostat -0.015 | silmitasertib -0.023 | [5] -0.032 | [6] -0.016 | entospletinib -0.049

PRRC2B (UniProt Q5JSZ5)
inactive: [1] 0.011 | [2] -0.037 | [3] -0.006 | [4] 0.053 | entinostat -0.006 | vorinostat -0.025 | citarinostat -0.12 | silmitasertib 0.04 | [5] 0.005 | [6] -0.031 | entospletinib 0.04

Two neighbouring entries out of the list so far:
PRPS1 (UniProt P60891)
inactive: [1] 0.035 | [2] 0.024 | [3] -0.014 | [4] 0.009 | entinostat 0.004 | vorinostat -0.023 | citarinostat -0.001 | silmitasertib -0.005 | [5] -0.008 | [6] -0.015 | entospletinib -0.051

PPWD1 (UniProt Q96BP3)
inactive: [1] -0.062 | [2] -0.074 | [3] -0.112 | [4] -0.047 | entinostat 0.035 | vorinostat 0.009 | citarinostat 0.005 | silmitasertib 0.021 | [5] -0.055 | [6] 0.003 | entospletinib -0.008

(continued)

PPP6R3 isoform 5 (UniProt Q5H9R7)
inactive: [1] 0.038 | [2] -0.001 | [3] -0.044 | [4] 0.021 | entinostat -0.023 | vorinostat 0.008 | citarinostat 0.023 | silmitasertib 0.035 | [5] -0.008 | [6] -0.027 | entospletinib 0.024

PPP3CB isoform 4 (UniProt P16298)
inactive: [1] 0.046 | [2] -0.109 | [3] -0.097 | [4] -0.035 | entinostat -0.003 | vorinostat 0.011 | citarinostat 0.017 | silmitasertib 0.024 | [5] -0.124 | [6] -0.03 | entospletinib -0.021

PRDX3 (UniProt P30048)
inactive: [1] -0.014 | [2] -0.081 | [3] 0.027 | [4] -0.034 | entinostat 0.008 | vorinostat -0.077 | citarinostat -0.006 | silmitasertib -0.016 | [5] -0.022 | [6] -0.008 | entospletinib 0.044

PRKAG2 (UniProt Q9UGJ0)
inactive: [1] -0.078 | [2] -0.036 | [3] -0.124 | [4] -0.012 | entinostat -0.284 | vorinostat 0.196 | citarinostat 0.072 | silmitasertib 0.034 | [5] 0.042 | [6] -0.042 | entospletinib -0.064

PRRC1 (UniProt Q96M27)
inactive: [1] -0.013 | [2] 0.008 | [3] 0.01 | [4] 0.003 | entinostat -0.039 | vorinostat -0.03 | citarinostat 0.038 | silmitasertib 0.006 | [5] -0.034 | [6] -0.011 | entospletinib 0.018

PPP1R9B (UniProt Q96SB3)
inactive: [1] -0.06 | [2] -0.084 | [3] 0.08 | [4] -0.008 | entinostat -0.153 | vorinostat 0.153 | citarinostat -0.246 | silmitasertib 0.214 | [5] 0.172 | [6] -0.044 | entospletinib 0.128

PRPF18 (UniProt Q99633)
inactive: [1] 0 | [2] 0.125 | [3] -0.262 | [4] -0.074 | entinostat 0.003 | vorinostat 0.162 | citarinostat -0.102 | silmitasertib 0.03 | [5] -0.213 | [6] 0.014 | entospletinib 0.039

PRPH isoform 2 (UniProt P41219)
inactive: [1] 0.057 | [2] -0.076 | [3] -0.135 | [4] 0.07 | entinostat 0.016 | vorinostat -0.087 | citarinostat -0.044 | silmitasertib 0.168 | [6] -0.224 | entospletinib 0.098

PPP5C (UniProt P53041)
inactive: [1] -0.067 | [2] -0.027 | [3] -0.003 | [4] -0.002 | entinostat -0.031 | vorinostat -0.059 | citarinostat 0.018 | silmitasertib -0.001 | [5] -0.022 | [6] -0.006 | entospletinib 0.021

PRKD3 (UniProt O94806)
inactive: [1] -0.565 | [2] -0.263 | [3] -0.285 | [4] -0.213 | entinostat 0.34 | vorinostat 0.096 | silmitasertib 0.021

PRKCSH (UniProt P14314)
inactive: [1] 0.039 | [2] 0.031 | [3] -0.001 | [4] 0.026 | entinostat -0.008 | vorinostat -0.021 | citarinostat 0.008 | silmitasertib -0.017 | [5] -0.032 | [6] 0.003 | entospletinib -0.001

PPP6C isoform 3 (UniProt O00743)
inactive: [1] -0.012 | [2] -0.025 | [3] -0.033 | [4] 0.006 | entinostat -0.027 | vorinostat -0.031 | citarinostat 0.009 | silmitasertib 0.032 | [5] -0.049 | [6] -0.052 | entospletinib 0.031

PREPL (UniProt Q4J6C6)
inactive: [1] -0.047 | [2] -0.057 | [3] -0.093 | [4] -0.029 | entinostat -0.04 | vorinostat 0.029 | citarinostat 0.014 | silmitasertib 0.005 | [5] -0.103 | [6] -0.032 | entospletinib 0.005

PRPSAP1 isoform 2 (UniProt Q14558)
inactive: [1] 0.06 | [2] 0.052 | [3] 0 | [4] 0.042 | entinostat -0.032 | vorinostat -0.009 | citarinostat 0.028 | silmitasertib 0.01 | [5] 0.006 | [6] -0.026 | entospletinib -0.003
